# The list does not hold the whole screen: it is rich in T/C values a quarter to a half above the control, in often repeated tests (any T/C) and in doses without a T/C. Other doses and runs of a compound stand elsewhere. T/C gives the treated animals as a percentage of the vehicle group. Some entries give survivors of the animals treated and no T/C: the source files T/C as zero there, which appears to mark a toxic dose or a test without result, not a measured value. Some doses without a T/C left all or most animals alive at the check, yet need not have been tolerated: survival well below the control is almost never listed, so the zero probably covers shortened survival too. Counts of survivors are from the toxicity check (mostly the fifth day) where no day follows; animals may have died later. Schedules are NCI's codes, taken here to give the interval after Q, in days (D) or hours (H), and the number of doses after X. Some entries hold several experiments; the results are listed from low to high. For survival time, this PubChem deposit counts one and a half times the control or more as active, and values a quarter to a half above the control carry no call in these data; other NCI protocols may use other cut-offs. Some T/C values are followed by the survivors on the day toxicity was checked, most often the fifth; where none is given, no animal had died by that day.
# System: CD2F1 mice, L1210 leukemia ip, survival T/C
# Assay: NCI In Vivo Anticancer Drug Screen. Data for tumor model L1210 Leukemia (intraperitoneal) in CD2F1 (CDF1) mice
# Conditions: higher T/C = longer survival
# Summary of the method: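 Vehicle-treated tumor-bearing mice served as controls (C) for compound-treated mice (T). Reported figure is T divided by C.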
# [1] = T/C endpoint: mean survival time, dose: 64.0 mg/kg/injection, schedule: Q03HX008 (ip), vehicle: saline
# [2] = T/C endpoint: mean survival time, dose: 64.0 mg/kg/injection, schedule: Q03HX024 (ip), vehicle: saline
# [3] = T/C endpoint: mean survival time, dose: 128.0 mg/kg/injection, schedule: Q03HX008 (ip), vehicle: saline
# [4] = T/C endpoint: mean survival time, dose: 128.0 mg/kg/injection, schedule: Q03HX024 (oral), vehicle: saline
# [5] = T/C endpoint: mean survival time, dose: 300.0 mg/kg/injection, schedule: Q01DX001 (ip), vehicle: saline
# [6] = T/C endpoint: mean survival time, dose: 512.0 mg/kg/injection, schedule: Q01DX001 (ip), vehicle: saline
# [7] = T/C endpoint: mean survival time, dose: 400.0 mg/kg/injection, schedule: Q04DX003 (ip), vehicle: saline with Tween-80
structure (smiles),measurement,setting,value
Nc1nc(=O)n(C2OC(CO)C(O)C2O)cc1F (stereo unspecified),T/C,"T/C endpoint: mean survival time, dose: 0.12 mg/kg/injection, schedule: Q03HX024 (ip), vehicle: saline",144 % of control
same,T/C,"T/C endpoint: mean survival time, dose: 1.0 mg/kg/injection, schedule: Q01DX009 (ip), vehicle: saline",132 % of control
same,T/C,"T/C endpoint: mean survival time, dose: 2.0 mg/kg/injection, schedule: Q04DX003 (ip), vehicle: saline",127 % of control
same,T/C,"T/C endpoint: mean survival time, dose: 4.0 mg/kg/injection, schedule: Q03HX016 (ip), vehicle: saline",132 % of control
same,T/C,"T/C endpoint: mean survival time, dose: 16.0 mg/kg/injection, schedule: Q03HX008 (ip), vehicle: saline",147 % of control
same,T/C,"T/C endpoint: mean survival time, dose: 16.0 mg/kg/injection, schedule: Q04DX003 (ip), vehicle: saline",147 % of control
same,T/C,"T/C endpoint: mean survival time, dose: 20.0 mg/kg/injection, schedule: Q03DX003 (ip), vehicle: saline",132 % of control
same,T/C,"T/C endpoint: mean survival time, dose: 32.0 mg/kg/injection, schedule: Q03HX024 (oral), vehicle: saline",126 % of control
same,T/C,"T/C endpoint: mean survival time, dose: 40.0 mg/kg/injection, schedule: Q03DX003 (ip), vehicle: saline",135 % of control
same,T/C,"T/C endpoint: mean survival time, dose: 64.0 mg/kg/injection, schedule: Q01DX009 (ip), vehicle: saline",140 % of control
same,survivor count,[1],4 of 10
same,survivor count,[2],4 of 10
same,survivor count,"T/C endpoint: mean survival time, dose: 75.0 mg/kg/injection, schedule: Q01DX008 (ip), vehicle: saline",4 of 10
same,T/C,"T/C endpoint: mean survival time, dose: 80.0 mg/kg/injection, schedule: Q03DX003 (ip), vehicle: saline",142 % of control
same,T/C,"T/C endpoint: mean survival time, dose: 128.0 mg/kg/injection, schedule: Q01DX009 (oral), vehicle: saline",135 % of control
same,survivor count,[3],8 of 10
same,survivor count,[4],2 of 10
same,survivor count,"T/C endpoint: mean survival time, dose: 150.0 mg/kg/injection, schedule: Q01DX008 (ip), vehicle: saline",7 of 10
same,survivor count,"T/C endpoint: mean survival time, dose: 150.0 mg/kg/injection, schedule: Q01DX008 (oral), vehicle: saline",4 of 10
same,survivor count,"T/C endpoint: mean survival time, dose: 200.0 mg/kg/injection, schedule: Q01DX009 (ip), vehicle: saline",6 of 6
same,T/C,"T/C endpoint: mean survival time, dose: 256.0 mg/kg/injection, schedule: Q01DX001 (ip), vehicle: saline",125 % of control
same,T/C,"T/C endpoint: mean survival time, dose: 256.0 mg/kg/injection, schedule: Q01DX001 (sc), vehicle: saline",138 % of control
same,T/C,"T/C endpoint: mean survival time, dose: 256.0 mg/kg/injection, schedule: Q03HX016 (ip), vehicle: saline",147 % of control [8 of 10 alive]
same,T/C,"T/C endpoint: mean survival time, dose: 256.0 mg/kg/injection, schedule: Q08DX002 (ip), vehicle: saline",127 % of control
same,T/C,[5],139 % of control
same,survivor count,"T/C endpoint: mean survival time, dose: 400.0 mg/kg/injection, schedule: Q01DX009 (ip), vehicle: saline",10 of 10 and 6 of 6
same,T/C,[6],146 % of control
same,survivor count,"T/C endpoint: mean survival time, dose: 512.0 mg/kg/injection, schedule: Q03HX024 (ip), vehicle: saline",8 of 10
same,T/C,"T/C endpoint: mean survival time, dose: 600.0 mg/kg/injection, schedule: Q01DX001 (oral), vehicle: saline",131 % of control
same,survivor count,"T/C endpoint: mean survival time, dose: 1024.0 mg/kg/injection, schedule: Q03HX016 (ip), vehicle: saline",6 of 10
same,T/C,"T/C endpoint: mean survival time, dose: 1200.0 mg/kg/injection, schedule: Q01DX001 (oral), vehicle: saline",145 % of control [9 of 10 alive]
CC(=O)Oc1cc([N+](=O)[O-])ccc1C(=O)O,survivor count,"T/C endpoint: mean survival time, dose: 400.0 mg/kg/injection, schedule: Q01DX009 (ip), vehicle: saline with Tween-80",2 of 6
CCCCC(=O)C(=O)OC(OC(=O)C(=O)CCCC)c1ccccc1,survivor count,[5],0 of 6
CCOc1ccc(-c2nc3ccc(-c4nc5ccc(N6CCN(C)CC6)cc5[nH]4)cc3[nH]2)cc1,T/C,"T/C endpoint: median survival time, dose: 1.56 mg/kg/injection, schedule: Q01DX009 (ip), vehicle: saline",125 % of control
same,T/C,"T/C endpoint: median survival time, dose: 3.0 mg/kg/injection, schedule: Q01DX009 (ip), vehicle: saline",130 % of control
same,T/C,"T/C endpoint: median survival time, dose: 3.12 mg/kg/injection, schedule: Q01DX009 (ip), vehicle: saline",131 % of control
same,T/C,"T/C endpoint: median survival time, dose: 6.0 mg/kg/injection, schedule: Q01DX009 (ip), vehicle: saline",126 % of control
same,T/C,"T/C endpoint: median survival time, dose: 6.25 mg/kg/injection, schedule: Q01DX009 (ip), vehicle: saline",135 % of control
same,T/C,"T/C endpoint: median survival time, dose: 12.0 mg/kg/injection, schedule: Q01DX009 (ip), vehicle: saline",134 % of control
same,T/C,"T/C endpoint: median survival time, dose: 12.5 mg/kg/injection, schedule: Q01DX009 (ip), vehicle: saline",146 % of control
same,survivor count,"T/C endpoint: median survival time, dose: 25.0 mg/kg/injection, schedule: Q01DX009 (ip), vehicle: saline",5 of 6
CCN(CC)CCC(=O)c1ccc2ccc3ccccc3c2c1,survivor count,"T/C endpoint: mean survival time, dose: 200.0 mg/kg/injection, schedule: Q01DX001 (ip), vehicle: saline",1 of 6
O=C(Oc1ccccc1)c1cc(O)c(O)c(O)c1,survivor count,"T/C endpoint: median survival time, dose: 400.0 mg/kg/injection, schedule: Q01DX009 (ip), vehicle: saline with Tween-80",3 of 6
COc1ccc(CCN)cc1OC,survivor count,[7],0 of 6
Cc1cc2nc3c(=O)[nH]c(=O)nc-3n(CC(O)C(O)C(O)C(O)CO)c2cc1C (stereo unspecified),survivor count,"T/C endpoint: mean survival time, dose: 800.0 mg/kg/injection, schedule: Q01DX009 (ip), vehicle: suspension in saline",3 of 6
O=C(CCBr)N1CCN(C(=O)CCBr)CC1,T/C,"T/C endpoint: mean survival time, dose: 25.0 mg/kg/injection, schedule: Q01DX007 (ip), vehicle: saline",127 % of control
same,T/C,"T/C endpoint: mean survival time, dose: 50.0 mg/kg/injection, schedule: Q01DX007 (ip), vehicle: saline",144 % of control
same,T/C,"T/C endpoint: mean survival time, dose: 50.0 mg/kg/injection, schedule: Q01DX009 (ip), vehicle: saline",144 % of control
same,survivor count,[1],9 of 10
same,survivor count,"T/C endpoint: mean survival time, dose: 64.0 mg/kg/injection, schedule: Q03HX008 (oral), vehicle: saline",8 of 10
same,survivor count,"T/C endpoint: mean survival time, dose: 64.0 mg/kg/injection, schedule: Q03HX016 (ip), vehicle: saline",8 of 10
same,survivor count,"T/C endpoint: mean survival time, dose: 64.0 mg/kg/injection, schedule: Q03HX016 (oral), vehicle: saline",10 of 10
same,survivor count,[2],10 of 10
same,survivor count,"T/C endpoint: mean survival time, dose: 64.0 mg/kg/injection, schedule: Q03HX024 (oral), vehicle: saline",10 of 10
same,T/C,"T/C endpoint: mean survival time, dose: 64.0 mg/kg/injection, schedule: Q04DX003 (oral), vehicle: saline",139 % of control
same,T/C,"T/C endpoint: mean survival time, dose: 100.0 mg/kg/injection, schedule: Q01DX009 (ip), vehicle: saline",146 % of control
same,T/C,"T/C endpoint: mean survival time, dose: 100.0 mg/kg/injection, schedule: Q04DX003 (ip), vehicle: saline",148 % of control
same,T/C,"T/C endpoint: mean survival time, dose: 128.0 mg/kg/injection, schedule: Q01DX001 (ip), vehicle: saline",140 % of control
same,survivor count,"T/C endpoint: mean survival time, dose: 128.0 mg/kg/injection, schedule: Q01DX009 (ip), vehicle: saline",10 of 10
same,survivor count,[3],6 of 10
same,survivor count,"T/C endpoint: mean survival time, dose: 128.0 mg/kg/injection, schedule: Q03HX008 (oral), vehicle: saline",4 of 10
same,survivor count,[4],5 of 10
same,T/C,"T/C endpoint: mean survival time, dose: 128.0 mg/kg/injection, schedule: Q08DX002 (oral), vehicle: saline",137 % of control
same,T/C,"T/C endpoint: mean survival time, dose: 256.0 mg/kg/injection, schedule: Q01DX001 (oral), vehicle: saline",134 % of control
same,survivor count,"T/C endpoint: mean survival time, dose: 256.0 mg/kg/injection, schedule: Q01DX009 (ip), vehicle: saline",9 of 10
same,survivor count,"T/C endpoint: mean survival time, dose: 256.0 mg/kg/injection, schedule: Q04DX003 (ip), vehicle: saline",5 of 10
same,survivor count,"T/C endpoint: mean survival time, dose: 256.0 mg/kg/injection, schedule: Q04DX003 (oral), vehicle: saline",6 of 10
same,survivor count,[6],6 of 10
same,survivor count,"T/C endpoint: mean survival time, dose: 512.0 mg/kg/injection, schedule: Q01DX001 (oral), vehicle: saline",5 of 10
same,survivor count,"T/C endpoint: mean survival time, dose: 512.0 mg/kg/injection, schedule: Q04DX003 (ip), vehicle: saline",5 of 10
same,survivor count,"T/C endpoint: mean survival time, dose: 512.0 mg/kg/injection, schedule: Q04DX003 (oral), vehicle: saline",5 of 10
same,survivor count,"T/C endpoint: mean survival time, dose: 512.0 mg/kg/injection, schedule: Q08DX002 (ip), vehicle: saline",4 of 10
same,survivor count,"T/C endpoint: mean survival time, dose: 1024.0 mg/kg/injection, schedule: Q01DX001 (ip), vehicle: saline",4 of 10
same,survivor count,"T/C endpoint: mean survival time, dose: 1024.0 mg/kg/injection, schedule: Q01DX001 (oral), vehicle: saline",2 of 10
same,survivor count,"T/C endpoint: mean survival time, dose: 1024.0 mg/kg/injection, schedule: Q04DX003 (oral), vehicle: saline",1 of 10
Cc1c(N=Nc2cc[n+]([O-])cc2)ccc(N(C)C)c1C,survivor count,[7],0 of 6

# From PubChem BioAssay AID256 (DTP/NCI, 2004)
